# Laboratory results published in the supplement of paper PMC11438910.
# The other results are listed elsewhere or left out. The signal is at background level for most entries.
# Key:
# Assay in all cases: fluorescence intensity of antibody binding to polysaccharide-coupled beads; higher = stronger binding
# [1] = biological target: pneumococcal polysaccharide Pn34
# Description: (§1)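 Recombinant rhesus-murine chimeric IgG1 antibodies were tested against antigen-coupled MagPlex beads in a 96-plex Luminex direct immunoassay (dLIA). The beads carried pneumococcal capsular polysaccharides of 93 serotypes plus C-polysaccharides. Antibody was added at 0.1–12,500 ng/mL for 1 h, then PE anti-mouse IgG, and net MFI was read on a Bio-Plex 3D. Only the rhesus variable regions are printed; constant regions are murine IgG1/kappa/lambda, and the signal peptide is MGWSCIILFLVATATGVHS.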
# [2] = biological target: pneumococcal polysaccharide Pn35A
# Description: as §1
# [3] = biological target: pneumococcal polysaccharide Pn35B
# Description: as §1
# [4] = biological target: pneumococcal polysaccharide Pn35C
# Description: as §1
# [5] = biological target: pneumococcal polysaccharide Pn35F
# Description: as §1
# [6] = biological target: pneumococcal polysaccharide Pn36
# Description: as §1
# [7] = biological target: pneumococcal polysaccharide Pn37
# Description: as §1
# [8] = biological target: pneumococcal polysaccharide Pn38
# Description: as §1
# [9] = biological target: pneumococcal polysaccharide Pn39
# Description: as §1
# [10] = biological target: pneumococcal polysaccharide Pn4
# Description: as §1
# [11] = biological target: pneumococcal polysaccharide Pn40
# Description: as §1
# [12] = biological target: pneumococcal polysaccharide Pn41A
# Description: as §1
# [13] = biological target: pneumococcal polysaccharide Pn41F
# Description: as §1
# [14] = biological target: pneumococcal polysaccharide Pn42
# Description: as §1
# [15] = biological target: pneumococcal polysaccharide Pn43
# Description: as §1
# [16] = biological target: pneumococcal polysaccharide Pn44
# Description: as §1
# [17] = biological target: pneumococcal polysaccharide Pn45
# Description: as §1
# [18] = biological target: pneumococcal polysaccharide Pn46
# Description: as §1
# [19] = biological target: pneumococcal polysaccharide Pn47A
# Description: as §1
# [20] = biological target: pneumococcal polysaccharide Pn47F
# Description: as §1
# [21] = biological target: pneumococcal polysaccharide Pn48
# Description: as §1
# [22] = biological target: pneumococcal polysaccharide Pn5
# Description: as §1
# [23] = biological target: pneumococcal polysaccharide Pn6A
# Description: as §1
# [24] = antibody concentration 0.1 ng/mL
# [25] = antibody concentration 0.534724 ng/mL
# [26] = antibody concentration 2.8593 ng/mL
# [27] = antibody concentration 15.2894 ng/mL
# [28] = antibody concentration 81.7561 ng/mL
# [29] = antibody concentration 437.17 ng/mL
# [30] = antibody concentration 2337.65 ng/mL
# [31] = antibody concentration 12500 ng/mL
binder,measurement,setting,value
4-127.3 (protein) chain 1: QVQLQESGPGLVKPSETLSLTCAVSGYSISSGYGWSWIRQPPGKGLEWIGYIGGSSGSTNYNPSLKSRVTVSKDTSKNQFSLKLSSVTAADTAVYYCARADYCTSTTCYGPNRFDVWGPGVLVTVSS chain 2: QAAPTQSPSVSGSAGQSVTISCTGSSSDIGYYNGVSWYQHHPGKAPKLMIYEVSKRPSGVSNRFSGSKSGNTASLTISGLQAADEADYFCSSYAGSGTYIFGAGTRLTVL,fluorescence intensity,[1]; [24],15 MFI
same,fluorescence intensity,[1]; [25],15 MFI
same,fluorescence intensity,[1]; [26],15 MFI
same,fluorescence intensity,[1]; [27],13.5 MFI
same,fluorescence intensity,[1]; [28],14.8 MFI
same,fluorescence intensity,[1]; [29],14.5 MFI
same,fluorescence intensity,[1]; [30],15.8 MFI
same,fluorescence intensity,[1]; [31],20 MFI
same,fluorescence intensity,[2]; [24],20.5 MFI
same,fluorescence intensity,[2]; [25],17.5 MFI
same,fluorescence intensity,[2]; [26],18 MFI
same,fluorescence intensity,[2]; [27],16.5 MFI
same,fluorescence intensity,[2]; [28],17 MFI
same,fluorescence intensity,[2]; [29],16.5 MFI
same,fluorescence intensity,[2]; [30],22.5 MFI
same,fluorescence intensity,[2]; [31],47.2 MFI
same,fluorescence intensity,[3]; [24],20.5 MFI
same,fluorescence intensity,[3]; [25],20 MFI
same,fluorescence intensity,[3]; [26],18.8 MFI
same,fluorescence intensity,[3]; [27],18.5 MFI
same,fluorescence intensity,[3]; [28],19.5 MFI
same,fluorescence intensity,[3]; [29],18.8 MFI
same,fluorescence intensity,[3]; [30],20 MFI
same,fluorescence intensity,[3]; [31],37 MFI
same,fluorescence intensity,[4]; [24],21.2 MFI
same,fluorescence intensity,[4]; [25],20.5 MFI
same,fluorescence intensity,[4]; [26],20.5 MFI
same,fluorescence intensity,[4]; [27],19.5 MFI
same,fluorescence intensity,[4]; [28],19.5 MFI
same,fluorescence intensity,[4]; [29],20.5 MFI
same,fluorescence intensity,[4]; [30],20 MFI
same,fluorescence intensity,[4]; [31],24 MFI
same,fluorescence intensity,[5]; [24],20.8 MFI
same,fluorescence intensity,[5]; [25],19.5 MFI
same,fluorescence intensity,[5]; [26],22.8 MFI
same,fluorescence intensity,[5]; [27],19 MFI
same,fluorescence intensity,[5]; [28],21 MFI
same,fluorescence intensity,[5]; [29],20.8 MFI
same,fluorescence intensity,[5]; [30],22 MFI
same,fluorescence intensity,[5]; [31],23.5 MFI
same,fluorescence intensity,[6]; [24],15.5 MFI
same,fluorescence intensity,[6]; [25],16 MFI
same,fluorescence intensity,[6]; [26],14.5 MFI
same,fluorescence intensity,[6]; [27],16.5 MFI
same,fluorescence intensity,[6]; [28],16.5 MFI
same,fluorescence intensity,[6]; [29],16 MFI
same,fluorescence intensity,[6]; [30],18.8 MFI
same,fluorescence intensity,[6]; [31],49 MFI
same,fluorescence intensity,[7]; [24],26.8 MFI
same,fluorescence intensity,[7]; [25],25.5 MFI
same,fluorescence intensity,[7]; [26],26 MFI
same,fluorescence intensity,[7]; [27],26 MFI
same,fluorescence intensity,[7]; [28],28.5 MFI
same,fluorescence intensity,[7]; [29],28 MFI
same,fluorescence intensity,[7]; [30],44.2 MFI
same,fluorescence intensity,[7]; [31],148 MFI
same,fluorescence intensity,[8]; [24],27 MFI
same,fluorescence intensity,[8]; [25],27.2 MFI
same,fluorescence intensity,[8]; [26],27.5 MFI
same,fluorescence intensity,[8]; [27],27.5 MFI
same,fluorescence intensity,[8]; [28],26 MFI
same,fluorescence intensity,[8]; [29],26.5 MFI
same,fluorescence intensity,[8]; [30],30.5 MFI
same,fluorescence intensity,[8]; [31],35.5 MFI
same,fluorescence intensity,[9]; [24],20 MFI
same,fluorescence intensity,[9]; [25],18 MFI
same,fluorescence intensity,[9]; [26],18 MFI
same,fluorescence intensity,[9]; [27],18 MFI
same,fluorescence intensity,[9]; [28],17.5 MFI
same,fluorescence intensity,[9]; [29],19 MFI
same,fluorescence intensity,[9]; [30],21.5 MFI
same,fluorescence intensity,[9]; [31],38.8 MFI
same,fluorescence intensity,[10]; [24],19 MFI
same,fluorescence intensity,[10]; [25],19 MFI
same,fluorescence intensity,[10]; [26],18.5 MFI
same,fluorescence intensity,[10]; [27],19 MFI
same,fluorescence intensity,[10]; [28],18.5 MFI
same,fluorescence intensity,[10]; [29],19.8 MFI
same,fluorescence intensity,[10]; [30],24.5 MFI
same,fluorescence intensity,[10]; [31],39 MFI
same,fluorescence intensity,[11]; [24],17.2 MFI
same,fluorescence intensity,[11]; [25],15.5 MFI
same,fluorescence intensity,[11]; [26],16.5 MFI
same,fluorescence intensity,[11]; [27],16.5 MFI
same,fluorescence intensity,[11]; [28],17.2 MFI
same,fluorescence intensity,[11]; [29],18 MFI
same,fluorescence intensity,[11]; [30],21.5 MFI
same,fluorescence intensity,[11]; [31],54.2 MFI
same,fluorescence intensity,[12]; [24],24.8 MFI
same,fluorescence intensity,[12]; [25],24 MFI
same,fluorescence intensity,[12]; [26],24 MFI
same,fluorescence intensity,[12]; [27],24 MFI
same,fluorescence intensity,[12]; [28],24.5 MFI
same,fluorescence intensity,[12]; [29],24.5 MFI
same,fluorescence intensity,[12]; [30],26 MFI
same,fluorescence intensity,[12]; [31],31.5 MFI
same,fluorescence intensity,[13]; [24],14 MFI
same,fluorescence intensity,[13]; [25],12.8 MFI
same,fluorescence intensity,[13]; [26],13.5 MFI
same,fluorescence intensity,[13]; [27],13 MFI
same,fluorescence intensity,[13]; [28],14 MFI
same,fluorescence intensity,[13]; [29],13.5 MFI
same,fluorescence intensity,[13]; [30],14 MFI
same,fluorescence intensity,[13]; [31],21 MFI
same,fluorescence intensity,[14]; [24],12 MFI
same,fluorescence intensity,[14]; [25],12 MFI
same,fluorescence intensity,[14]; [26],11.5 MFI
same,fluorescence intensity,[14]; [27],11.5 MFI
same,fluorescence intensity,[14]; [28],11.5 MFI
same,fluorescence intensity,[14]; [29],12.5 MFI
same,fluorescence intensity,[14]; [30],15 MFI
same,fluorescence intensity,[14]; [31],26.5 MFI
same,fluorescence intensity,[15]; [24],15.5 MFI
same,fluorescence intensity,[15]; [25],16 MFI
same,fluorescence intensity,[15]; [26],16.2 MFI
same,fluorescence intensity,[15]; [27],16.5 MFI
same,fluorescence intensity,[15]; [28],16.5 MFI
same,fluorescence intensity,[15]; [29],18 MFI
same,fluorescence intensity,[15]; [30],26 MFI
same,fluorescence intensity,[15]; [31],89.5 MFI
same,fluorescence intensity,[16]; [24],24.5 MFI
same,fluorescence intensity,[16]; [25],25.5 MFI
same,fluorescence intensity,[16]; [26],26 MFI
same,fluorescence intensity,[16]; [27],27 MFI
same,fluorescence intensity,[16]; [28],26 MFI
same,fluorescence intensity,[16]; [29],28 MFI
same,fluorescence intensity,[16]; [30],28 MFI
same,fluorescence intensity,[16]; [31],37 MFI
same,fluorescence intensity,[17]; [24],12 MFI
same,fluorescence intensity,[17]; [25],11 MFI
same,fluorescence intensity,[17]; [26],10.5 MFI
same,fluorescence intensity,[17]; [27],10.5 MFI
same,fluorescence intensity,[17]; [28],12 MFI
same,fluorescence intensity,[17]; [29],11 MFI
same,fluorescence intensity,[17]; [30],13.5 MFI
same,fluorescence intensity,[17]; [31],18.8 MFI
same,fluorescence intensity,[18]; [24],24 MFI
same,fluorescence intensity,[18]; [25],22.8 MFI
same,fluorescence intensity,[18]; [26],24.5 MFI
same,fluorescence intensity,[18]; [27],23.8 MFI
same,fluorescence intensity,[18]; [28],23 MFI
same,fluorescence intensity,[18]; [29],24 MFI
same,fluorescence intensity,[18]; [30],25.5 MFI
same,fluorescence intensity,[18]; [31],54 MFI
same,fluorescence intensity,[19]; [24],14.5 MFI
same,fluorescence intensity,[19]; [25],16 MFI
same,fluorescence intensity,[19]; [26],15 MFI
same,fluorescence intensity,[19]; [27],16 MFI
same,fluorescence intensity,[19]; [28],16 MFI
same,fluorescence intensity,[19]; [29],15.8 MFI
same,fluorescence intensity,[19]; [30],17 MFI
same,fluorescence intensity,[19]; [31],23.8 MFI
same,fluorescence intensity,[20]; [24],14 MFI
same,fluorescence intensity,[20]; [25],12 MFI
same,fluorescence intensity,[20]; [26],11.8 MFI
same,fluorescence intensity,[20]; [27],13 MFI
same,fluorescence intensity,[20]; [28],13.5 MFI
same,fluorescence intensity,[20]; [29],13 MFI
same,fluorescence intensity,[20]; [30],14 MFI
same,fluorescence intensity,[20]; [31],38.5 MFI
same,fluorescence intensity,[21]; [24],21.5 MFI
same,fluorescence intensity,[21]; [25],22 MFI
same,fluorescence intensity,[21]; [26],21.5 MFI
same,fluorescence intensity,[21]; [27],21.8 MFI
same,fluorescence intensity,[21]; [28],23 MFI
same,fluorescence intensity,[21]; [29],23.8 MFI
same,fluorescence intensity,[21]; [30],31 MFI
same,fluorescence intensity,[21]; [31],43.2 MFI
same,fluorescence intensity,[22]; [24],9 MFI
same,fluorescence intensity,[22]; [25],8.5 MFI
same,fluorescence intensity,[22]; [26],8.5 MFI
same,fluorescence intensity,[22]; [27],9 MFI
same,fluorescence intensity,[22]; [28],8.5 MFI
same,fluorescence intensity,[22]; [29],10.5 MFI
same,fluorescence intensity,[22]; [30],10.5 MFI
same,fluorescence intensity,[22]; [31],43 MFI
same,fluorescence intensity,[23]; [24],24.8 MFI
same,fluorescence intensity,[23]; [25],22.8 MFI
same,fluorescence intensity,[23]; [26],22.5 MFI
same,fluorescence intensity,[23]; [27],21.5 MFI

# Six entries drawn at random from those above, as already listed:
binder,measurement,setting,value
4-127.3 (protein) chain 1: QVQLQESGPGLVKPSETLSLTCAVSGYSISSGYGWSWIRQPPGKGLEWIGYIGGSSGSTNYNPSLKSRVTVSKDTSKNQFSLKLSSVTAADTAVYYCARADYCTSTTCYGPNRFDVWGPGVLVTVSS chain 2: QAAPTQSPSVSGSAGQSVTISCTGSSSDIGYYNGVSWYQHHPGKAPKLMIYEVSKRPSGVSNRFSGSKSGNTASLTISGLQAADEADYFCSSYAGSGTYIFGAGTRLTVL,fluorescence intensity,[19]; [28],16 MFI
same,fluorescence intensity,[23]; [24],24.8 MFI
same,fluorescence intensity,[8]; [24],27 MFI
same,fluorescence intensity,[22]; [29],10.5 MFI
same,fluorescence intensity,[21]; [26],21.5 MFI
same,fluorescence intensity,[11]; [26],16.5 MFI
